Laboratory results: patent publication US20200121697A1, “METHODS FOR DIAGNOSING AND TREATING CACHEXIA” (Aurin Biotech Inc., priority 2017, published 2020)
Some entries share one result that the patent states for a list of compounds.

System: salivary TNFα
Experiment: Salivary TNFα levels (ELISA) and cachexia symptoms in cachexic cancer patients under oral treatment
Type: in vivo
Details: cachexic human cancer cases, salivary TNFα 405 to 462 pg/ml before treatment
Text: Endogenous TNFα production can be measured by ELISA. The data reported herein used the Peprotech human TNFα kit (catalog 900-T25) following directions of the manufacturer. Alternative ELISA methods, not relying on commercial manufacturers, could be employed. […] This standard curve was used to calculate TNFα production in various organs and in saliva as presented herein.
The stabilization step may involve known methods for stabilizing TNFα, such as those described by Lee et al. (2017), incorporated herein by reference.
The detection step is designed to treat the stabilized saliva sample with an TNFα antibody in such a way as to bind essentially all of the TNFα present in the sample. The detection step may involve an immunoassay, such as an ELISA test based on an antigen-antibody reaction using TNFα as the antigen to be measured. For example, the capture antibody may be a polyclonal antibody specific for TNFα. […] The biotin levels are detected by first treating with a streptavidin solution linked with horse radish peroxidase (HRP) followed by treatment with a tetramethylbenzidine solution to detect the HRP by reading the resulting color in a spectrophotometer. An ELISA standard concentration graph of target TNFα may be obtained, for example, by absorbance detection, fluorescence detection, luminescence detection, or electrochemical detection. […]

## CC(=O)Oc1ccc(-c2ccc(OC(C)=O)c(C(=O)O)c2)cc1C(=O)O [DAS, 4,4′-diacetoxy-1,1 biphenyl-3,3′ dicarboxylic acid]
  duration of treatment that restored salivary TNFα to normal levels: 10 to 21 days
